# From PubChem BioAssay AID624297 (National Center for Advancing Translational Sciences (NCATS), 2012)
# Among all 340,000 compounds or so, about 6,200 (1.8%) were called active. Inconclusive results, whose numbers are uncertain, are shown with a selection of clear calls. The call rests on the fitted dose curve; in most records, active means well fitted activation curve with a large enough effect; inconclusive means small, poorly fitted or top-dose-only effect; inactive means no such curve, though single readings can be large or run the other way. Where the call is inconclusive, the potency comes from a doubtful curve fit.
# Test: A quantitative high throughput screen for small molecules that induce DNA re-replication in SW480 colon adenocarcinoma cells. Further: nearly all actives have a fitted effect of over 55% in size. On re-replication activation: % of control where 0% means no effect.
# Conditions: Hoechst DNA content imaging, 48 h; re-replication activation: at 46.1 µM (top of the series) unless noted
# How it was run: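 First, 250 cells per well were seeded. Next, compound or vehicle (23 nL) was pinned in, plates sat 48 hr at 37 C. Finally Hoechst was added for 40 min before fluorescence scanning.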
# Potency means the concentration at half of the fitted maximal effect.
SMILES,Potency,re-replication activation
CC(=O)C(Cc1ccccc1)NC(=O)COC(=O)c1ccc(-n2cnnn2)cc1 (centres undefined),inactive,–
CCCOC(=O)C(C)n1c(-c2ccccc2)nc2ccccc2c1=O (centres undefined),inactive,–
COc1ccc(OCc2cc(C(=O)NC3Cc4ccccc4C3)no2)c(Cl)c1,"inconclusive: 29.1 µM [activator, single point]",–
CC(Cc1cccs1)NC(=S)Nc1ccc(Cl)c(Cl)c1 (centres undefined),inactive,–
O=C(Cc1ccc(Cl)cc1)Nc1ccccc1N1CCN(C(=O)c2ccccc2)CC1,"inconclusive: 6.51 µM [activator, full curve]",–
COC(=O)C1Cc2ccccc2CN1C(=O)CCl (centres undefined),"inconclusive: 29.1 µM [activator, single point]",–
CCn1c(CSc2nc3ccccc3s2)n[nH]c1=S,"inconclusive: 29.1 µM [activator, single point]",–
Cc1ccc(NC(=O)CN(C)S(=O)(=O)c2ccc3c(c2)n(C)c(=O)c(=O)n3C)cc1,"inconclusive: 29.1 µM [activator, single point]",–
COC(=O)c1c(NC(=O)C(=O)NCCCN2CCOCC2)sc2c1CCCC2,"inconclusive: 20.6 µM [activator, single point]",–
COCCNC(=O)c1ccc2c(c1)ncn2-c1ccc(C)c(Cl)c1,"inconclusive: 29.1 µM [activator, single point]",–
CCN(CC(=O)Nc1ccc(S(=O)(=O)N2CCOCC2)cc1)Cc1ccccc1,"inconclusive: 18.4 µM [activator, single point]",–
COc1ccccc1NC(=S)NCCN1CCOCC1,inactive,–
Nc1nc(C23CC4CCC(CC(C4)C2)C3)cs1,"inconclusive: 14.6 µM [activator, partial curve, poor fit]",–
Cc1ccc(/C=C(\C#N)c2nc3ccccc3[nH]2)s1,"inconclusive: 23.1 µM [activator, single point]",–
CN(Cc1ccccc1)C(=O)c1ccc(NC(=O)C2=CSCCO2)cc1,inactive,–
O=C(CSc1cccc2cccc(Cl)c12)NC1=NCCS1,"inconclusive: 23.1 µM [activator, single point]",–
COc1ccc(Cl)cc1S(=O)(=O)N1CCC(C(=O)NCc2ccco2)CC1,inactive,–
COc1ccc(S(=O)(=O)N2CCN(C(=O)c3ccc4ccccc4n3)CC2)cc1,inactive,–
O=C(c1cc2ncc(CCCl)cn2n1)N1CCCCCC1,"inconclusive: 29.1 µM [activator, partial curve, poor fit]",–
CCCN(CCC)C(=O)c1cc(-c2ccc3c(c2)OCO3)nc2ccccc12,"inconclusive: 29.1 µM [activator, partial curve, poor fit]",–
COc1ccc(-c2cc(C(=O)Nc3c(F)cc(F)cc3Br)no2)cc1,–,inconclusive: 13.2% [activator]
CC(=O)Nc1cccc(C(=O)OCC(=O)N2CCN(C(=O)COC(=O)c3cccc(NC(C)=O)c3)CC2)c1,inactive,–
COc1ccc(CCC(=O)Nc2ccc(Br)cn2)cc1,"inconclusive: 18.4 µM [activator, single point]",–

# Of the compounds above, these have a thiophene ring, fused or not.
SMILES,Potency,re-replication activation
CC(Cc1cccs1)NC(=S)Nc1ccc(Cl)c(Cl)c1 (centres undefined),inactive,–
COC(=O)c1c(NC(=O)C(=O)NCCCN2CCOCC2)sc2c1CCCC2,"inconclusive: 20.6 µM [activator, single point]",–
Cc1ccc(/C=C(\C#N)c2nc3ccccc3[nH]2)s1,"inconclusive: 23.1 µM [activator, single point]",–

# Not a retest: an excerpt of the list.
SMILES,Potency,re-replication activation
O=C(c1cc2ncc(CCCl)cn2n1)N1CCCCCC1,"inconclusive: 29.1 µM [activator, partial curve, poor fit]",–
CCCN(CCC)C(=O)c1cc(-c2ccc3c(c2)OCO3)nc2ccccc12,"inconclusive: 29.1 µM [activator, partial curve, poor fit]",–

# The list continues.

SMILES,Potency,re-replication activation
COC(=O)c1ccc(COc2cccc3c2CCN(Cc2cccc(C)c2)C3=O)o1,"inconclusive: 20.6 µM [activator, partial curve, poor fit]",–
CCOC(=O)[C@@H]1[C@H]2COc3ccccc3[C@@H]2N2C(=O)N(c3ccc(OC)cc3)C(=O)[C@@]12C,inactive,–
COc1ccc(NS(=O)(=O)c2cc(C)ccc2C)cc1,"inconclusive: 20.6 µM [activator, single point]",–
CSCSC1=C(C#N)C(c2ccccc2Cl)C(C(C)=O)=C(C)N1 (centres undefined),"inconclusive: 29.1 µM [activator, single point]",–
CC(=O)N1CCN(c2ccccc2NC(=O)c2cc(Br)ccc2Cl)CC1,"inconclusive: 14.6 µM [activator, single point]",–
CC(C)(C)/C(O)=C/c1nc2ccccc2[nH]c1=O,inactive,–
CC1Cc2ccccc2N1S(=O)(=O)c1cccc(C(=O)N2CCN(c3ncccn3)CC2)c1 (centres undefined),"inconclusive: 1.46 µM [activator, full curve]",–
Cc1cc(OC(C)C(=O)N/N=C/CC(C)c2ccccc2)ccc1Cl (centres undefined),inactive,–
CCCc1cc(-c2n[nH]c(=S)n2CC)c2ccccc2n1,"inconclusive: 25.9 µM [activator, partial curve, poor fit]",–
N#C/C(=C\c1ccc(O)c(O)c1)C(=O)N1CCc2ccccc21,"inconclusive: 3.98 µM [activator, partial curve, poor fit]",–
O=C(NCC1CCCCC1)c1cccc(-c2ccc(O)cc2)c1,"inconclusive: 23.1 µM [activator, single point]",–
CCOC(=O)C1=C(C)N(C[C@@H]2CC[C@@H](Cc3ccc(-c4ccccc4)cc3)O2)C(=O)NC1c1ccc(C(F)(F)F)cc1 (some centres undefined),"inconclusive: 0.731 µM [activator, full curve, poor fit]",–
O=C(CN1C(=O)NC2(CCCCC2)C1=O)N1CCN(S(=O)(=O)c2cccc(F)c2)CC1,"inconclusive: 23.1 µM [activator, single point]",–
Cc1cccc2sc(NNC(=O)c3cc(-c4cccs4)nc4ccccc34)nc12,"inconclusive: 20.6 µM [activator, single point]",–
O=C(NC(NCc1ccccn1)(C(F)(F)F)C(F)(F)F)c1ccco1,"inconclusive: 29.1 µM [activator, single point]",–
O=C(CSc1nnc(-c2ccc(F)cc2)c2ccccc12)Nc1ccccc1Cl,inactive,–
CCn1c(=O)c(C(=O)NNC(=O)c2cccc(Cl)c2)c(O)c2ccccc21,"inconclusive: 20.6 µM [activator, single point]",–
CCCc1nc2ccc(NC(C)=O)cc2c(=O)n1Cc1ccccc1Cl,inactive,–
COc1ccc(C(c2nnnn2C(C)C)N2CCN(C(=O)c3ccco3)CC2)cc1 (centres undefined),inactive,–
CN1CCc2c(sc(NC(=O)c3ccc([N+](=O)[O-])o3)c2C(N)=O)C1,active: 1.46 µM,–
COc1ccc(C(c2c(NC(=O)c3ccccc3)sc(C)c2C)N2CCN(CCO)CC2)cc1 (centres undefined),"inconclusive: 2.06 µM [activator, single point]",–
Cc1cc2c(c(C)c1CCO)C(=O)[C@H](C)C2,"inconclusive: 0.58 µM [activator, partial curve, poor fit]",–
Cc1cc(-c2n[nH]c(=S)n2/N=C/c2cc([N+](=O)[O-])ccc2Cl)n[nH]1,"inconclusive: 16.4 µM [activator, single point]",–

SMILES,Potency,re-replication activation
OCC[C@H]1C[C@H](O)[C@@H](O)[C@@]2(OCCCc3ccccc32)O1,inactive,–
Cc1ccc2[nH]c(=O)c3cc(C(=O)N(C)c4ccc(C)c(C)c4)sc3c2c1,active: 14.6 µM,–
CCN(CC)CCN1C(=O)C2C(C(=O)Nc3cccc(SC)c3)C3C=CC2(O3)C1C(=O)NC1CCCC(C)C1C (centres undefined),active: 18.4 µM,–
O=C(N[C@@H](Cc1ccccc1)C(=O)N1CCC2(CC1)NCCc1[nH]cnc12)c1cccc(F)c1,"inconclusive: 0.708 µM [activator, full curve, poor fit]",–
COc1ccc(C(CCN2CCCCC2)c2c(OC)cc(OC)c3c(-c4ccccc4)cc(=O)oc23)cc1 (centres undefined),active: 1.64 µM,–
COc1cc(C=O)ccc1OCC(=O)Nc1ccc2c(c1)OCO2,inactive,–
COc1cc(C2/C(=C(\O)c3ccc4c(c3)OCCO4)C(=O)C(=O)N2CCN2CCOCC2)cc(OC)c1OC (centres undefined),"inconclusive: 20.6 µM [activator, single point]",–
CN(C)c1ccc(C=Nc2ccc(N(C)C)cc2)cc1,"inconclusive: 18.4 µM [activator, single point]",–
NC(=O)c1ccccc1OCC(=O)c1ccc(Cl)cc1,inactive,–
C/C(=N\NC(=O)c1ccc(NS(=O)(=O)c2cccs2)cc1)c1ccc2c(c1)OCO2,inactive,–
CCOc1ccc(NS(=O)(=O)c2ccc(NC(=S)NC(=O)CC(C)C)cc2)cc1,"inconclusive: 29.1 µM [activator, single point]",–
Cn1[nH]cc(C=NC(N)=O)c1=O,inactive,–
CC(=O)c1ccc(NS(=O)(=O)c2cc3c(cc2C)N(C(C)=O)CCO3)cc1,inactive,–
Cc1ccc(Cn2c(CCNc3nc(-c4ccc(Cl)c([N+](=O)[O-])c4)cs3)nc3cc(C(=O)NCCCO)ccc32)cc1,inactive,–
N#C/C(=C\c1coc2ccccc2c1=O)C(N)=S,"inconclusive: 29.1 µM [activator, single point]",–
Cc1cccc2cc(CN(CC3CCCO3)C(=S)NCc3ccco3)c(=O)[nH]c12 (centres undefined),"inconclusive: 20.6 µM [activator, partial curve, poor fit]",–
COc1ccc(CC(=O)NC(=S)Nc2cccc(C)c2)cc1,inactive,–
O=C(N/N=C/c1cc([N+](=O)[O-])ccc1O)c1cccc(NC(=O)c2cccc(Cl)c2)c1,active: 2.31 µM,–
O=C(Oc1cccc(/C=N/Nc2nc(Nc3ccccc3)nc(N3CCOCC3)n2)c1)c1ccco1,"inconclusive: 4.61 µM [activator, full curve, poor fit]",–
COc1ccc(N(CC(=O)NCc2ccco2)S(=O)(=O)c2ccc(C)cc2)cc1,"inconclusive: 4.11 µM [activator, partial curve, poor fit]",–
N#Cc1c(Nc2ccc(Cl)cc2)s[nH]c1=O,"inconclusive: 23.1 µM [activator, single point]",–
CN=C(Nc1cc(C)nn1-c1ccccc1)c1ccccc1F,inactive,–
Cc1cccn2c(=O)c3cc(C(=O)NC4CCCCC4)n(C)c3nc12,"inconclusive: 5.17 µM [activator, partial curve, poor fit]",–
